This is one part of the list.
Key:
Assay in all cases: log2 fold change, soluble protein after heating vs DMSO (PISA); higher = thermal stabilisation; K562 cells, 10 uM, 30 min; active = over 0.2 and 3.5 SD of the protein, either way, in both replicates (recomputed)
[1] = compound: CC1=C(C=C(C=C1)NC(=O)C2=CC(=CC=C2)C(C)(C)C#N)NC3=CC4=C(C=C3)N=CN(C4=O)C
Outline: (§1)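 Soluble protein was defined as the supernatant after 21,000xg for 90 min. It came from K562 cells at 2×10^6 cells/mL given 10 μM compound for 30 min, heated in aliquots for 3 min across 48°C-58°C, pooled, and extracted in PBS with 0.5% NP-40 at 4°C, and was quantified by TMTpro 16plex LC-MS/MS with equalised channel sums. Thermal stability against control samples, from duplicates, is reported as log2 fold change.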

The chains behind the UniProt entries cited, without tags or fusion partners. Where a name states a change or a piece, a line headed by the entry shows the natural chain unless it says otherwise.
UniProt Q9NV96: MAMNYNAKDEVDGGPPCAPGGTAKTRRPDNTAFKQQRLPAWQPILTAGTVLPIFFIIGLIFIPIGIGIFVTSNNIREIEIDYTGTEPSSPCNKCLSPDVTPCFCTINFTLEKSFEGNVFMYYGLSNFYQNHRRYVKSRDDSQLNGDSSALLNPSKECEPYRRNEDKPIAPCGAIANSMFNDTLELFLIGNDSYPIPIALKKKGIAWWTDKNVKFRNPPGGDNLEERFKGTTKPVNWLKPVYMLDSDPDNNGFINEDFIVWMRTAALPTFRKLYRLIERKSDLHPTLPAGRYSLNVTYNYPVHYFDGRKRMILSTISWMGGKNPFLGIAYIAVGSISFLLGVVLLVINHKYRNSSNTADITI
UniProt Q9NVV0: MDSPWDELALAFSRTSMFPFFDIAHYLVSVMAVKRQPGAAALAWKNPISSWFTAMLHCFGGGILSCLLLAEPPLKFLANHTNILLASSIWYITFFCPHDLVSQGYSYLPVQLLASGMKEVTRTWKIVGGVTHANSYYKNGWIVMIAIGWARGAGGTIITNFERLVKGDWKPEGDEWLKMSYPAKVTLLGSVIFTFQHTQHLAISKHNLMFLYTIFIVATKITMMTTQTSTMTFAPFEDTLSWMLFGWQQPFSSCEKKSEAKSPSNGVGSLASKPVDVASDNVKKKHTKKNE
UniProt Q96MH6: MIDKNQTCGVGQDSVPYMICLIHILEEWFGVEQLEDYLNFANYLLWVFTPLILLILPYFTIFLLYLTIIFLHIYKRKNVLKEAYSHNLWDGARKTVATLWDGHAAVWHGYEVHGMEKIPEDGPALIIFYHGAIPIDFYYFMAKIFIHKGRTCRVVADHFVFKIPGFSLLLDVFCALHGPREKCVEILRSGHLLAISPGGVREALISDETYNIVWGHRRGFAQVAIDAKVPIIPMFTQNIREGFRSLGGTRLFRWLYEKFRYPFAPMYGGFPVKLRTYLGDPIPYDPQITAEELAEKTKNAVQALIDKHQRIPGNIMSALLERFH
UniProt Q9NVH6: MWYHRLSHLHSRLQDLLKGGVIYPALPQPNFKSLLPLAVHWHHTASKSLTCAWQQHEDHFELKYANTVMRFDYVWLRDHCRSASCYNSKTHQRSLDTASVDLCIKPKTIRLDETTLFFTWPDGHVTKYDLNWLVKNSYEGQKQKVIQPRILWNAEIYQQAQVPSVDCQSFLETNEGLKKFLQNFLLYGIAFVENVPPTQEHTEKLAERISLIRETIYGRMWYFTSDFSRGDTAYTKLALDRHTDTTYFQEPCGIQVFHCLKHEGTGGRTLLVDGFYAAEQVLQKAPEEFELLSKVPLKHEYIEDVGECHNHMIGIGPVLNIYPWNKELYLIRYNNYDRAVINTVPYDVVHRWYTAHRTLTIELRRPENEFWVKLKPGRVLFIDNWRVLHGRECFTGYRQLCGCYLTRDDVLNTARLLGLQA
UniProt Q9BRN9: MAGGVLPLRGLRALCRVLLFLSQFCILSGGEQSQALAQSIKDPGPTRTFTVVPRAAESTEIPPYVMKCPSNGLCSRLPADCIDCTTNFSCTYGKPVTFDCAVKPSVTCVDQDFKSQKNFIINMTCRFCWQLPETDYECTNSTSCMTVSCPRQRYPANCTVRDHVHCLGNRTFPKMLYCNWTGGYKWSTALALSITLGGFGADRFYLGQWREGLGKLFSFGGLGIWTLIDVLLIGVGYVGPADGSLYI
UniProt Q96JJ7: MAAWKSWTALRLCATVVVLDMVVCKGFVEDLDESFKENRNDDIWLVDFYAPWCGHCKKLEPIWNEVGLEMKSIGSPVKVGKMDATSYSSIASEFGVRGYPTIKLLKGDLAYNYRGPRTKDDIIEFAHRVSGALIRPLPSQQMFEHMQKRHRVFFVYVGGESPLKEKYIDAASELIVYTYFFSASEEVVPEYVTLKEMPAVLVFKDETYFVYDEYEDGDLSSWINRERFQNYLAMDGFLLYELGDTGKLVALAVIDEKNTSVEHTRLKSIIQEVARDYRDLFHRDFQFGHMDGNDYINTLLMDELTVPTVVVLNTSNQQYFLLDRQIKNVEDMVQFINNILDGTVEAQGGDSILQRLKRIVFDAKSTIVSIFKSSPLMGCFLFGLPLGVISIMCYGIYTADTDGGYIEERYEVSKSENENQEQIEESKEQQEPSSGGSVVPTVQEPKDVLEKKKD
UniProt Q9P0T7: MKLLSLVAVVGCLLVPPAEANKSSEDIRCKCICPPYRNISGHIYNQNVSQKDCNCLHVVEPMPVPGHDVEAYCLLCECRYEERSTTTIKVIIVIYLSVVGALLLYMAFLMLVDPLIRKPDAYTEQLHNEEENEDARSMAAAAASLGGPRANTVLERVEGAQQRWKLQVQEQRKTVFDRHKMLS
UniProt Q9H061: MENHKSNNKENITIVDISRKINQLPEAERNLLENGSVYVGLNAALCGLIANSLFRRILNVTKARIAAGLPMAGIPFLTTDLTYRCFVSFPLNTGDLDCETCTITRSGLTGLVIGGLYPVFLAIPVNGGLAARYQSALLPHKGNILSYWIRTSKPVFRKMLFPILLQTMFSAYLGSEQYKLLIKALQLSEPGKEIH
UniProt Q9NX61: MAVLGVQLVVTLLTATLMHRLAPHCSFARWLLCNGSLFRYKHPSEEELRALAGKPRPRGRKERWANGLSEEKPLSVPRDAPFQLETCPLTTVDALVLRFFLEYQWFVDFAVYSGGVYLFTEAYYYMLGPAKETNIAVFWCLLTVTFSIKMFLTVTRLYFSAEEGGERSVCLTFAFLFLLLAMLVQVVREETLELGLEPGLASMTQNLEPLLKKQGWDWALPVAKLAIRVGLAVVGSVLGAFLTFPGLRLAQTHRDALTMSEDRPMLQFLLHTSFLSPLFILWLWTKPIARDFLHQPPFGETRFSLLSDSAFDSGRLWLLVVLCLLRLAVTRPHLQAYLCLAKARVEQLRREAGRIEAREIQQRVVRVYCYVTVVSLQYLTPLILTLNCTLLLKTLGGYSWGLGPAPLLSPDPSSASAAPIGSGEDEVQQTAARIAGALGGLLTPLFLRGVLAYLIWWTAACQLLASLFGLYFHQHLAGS
UniProt Q6UW68: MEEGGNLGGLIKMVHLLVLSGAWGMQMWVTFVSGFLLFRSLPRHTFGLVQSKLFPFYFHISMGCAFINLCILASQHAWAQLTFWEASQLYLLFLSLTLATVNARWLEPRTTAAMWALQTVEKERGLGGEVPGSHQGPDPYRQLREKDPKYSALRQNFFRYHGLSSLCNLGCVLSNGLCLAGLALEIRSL
UniProt Q9BVK6: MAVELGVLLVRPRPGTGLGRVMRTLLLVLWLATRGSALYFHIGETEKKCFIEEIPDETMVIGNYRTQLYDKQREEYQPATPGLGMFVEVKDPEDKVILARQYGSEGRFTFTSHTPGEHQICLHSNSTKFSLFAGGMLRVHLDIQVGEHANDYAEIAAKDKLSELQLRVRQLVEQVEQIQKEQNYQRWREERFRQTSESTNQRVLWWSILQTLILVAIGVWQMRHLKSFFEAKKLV
UniProt P63313: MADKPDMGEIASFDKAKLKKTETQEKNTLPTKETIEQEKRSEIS
UniProt Q71RG4: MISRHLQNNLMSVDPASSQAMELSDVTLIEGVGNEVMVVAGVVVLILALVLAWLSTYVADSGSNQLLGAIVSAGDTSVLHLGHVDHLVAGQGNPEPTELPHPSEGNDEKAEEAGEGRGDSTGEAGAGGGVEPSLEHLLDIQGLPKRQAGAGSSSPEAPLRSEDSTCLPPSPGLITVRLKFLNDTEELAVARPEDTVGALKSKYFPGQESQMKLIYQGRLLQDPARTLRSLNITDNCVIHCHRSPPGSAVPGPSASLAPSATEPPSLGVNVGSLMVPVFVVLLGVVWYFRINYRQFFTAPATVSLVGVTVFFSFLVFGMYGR
UniProt Q6NUQ4: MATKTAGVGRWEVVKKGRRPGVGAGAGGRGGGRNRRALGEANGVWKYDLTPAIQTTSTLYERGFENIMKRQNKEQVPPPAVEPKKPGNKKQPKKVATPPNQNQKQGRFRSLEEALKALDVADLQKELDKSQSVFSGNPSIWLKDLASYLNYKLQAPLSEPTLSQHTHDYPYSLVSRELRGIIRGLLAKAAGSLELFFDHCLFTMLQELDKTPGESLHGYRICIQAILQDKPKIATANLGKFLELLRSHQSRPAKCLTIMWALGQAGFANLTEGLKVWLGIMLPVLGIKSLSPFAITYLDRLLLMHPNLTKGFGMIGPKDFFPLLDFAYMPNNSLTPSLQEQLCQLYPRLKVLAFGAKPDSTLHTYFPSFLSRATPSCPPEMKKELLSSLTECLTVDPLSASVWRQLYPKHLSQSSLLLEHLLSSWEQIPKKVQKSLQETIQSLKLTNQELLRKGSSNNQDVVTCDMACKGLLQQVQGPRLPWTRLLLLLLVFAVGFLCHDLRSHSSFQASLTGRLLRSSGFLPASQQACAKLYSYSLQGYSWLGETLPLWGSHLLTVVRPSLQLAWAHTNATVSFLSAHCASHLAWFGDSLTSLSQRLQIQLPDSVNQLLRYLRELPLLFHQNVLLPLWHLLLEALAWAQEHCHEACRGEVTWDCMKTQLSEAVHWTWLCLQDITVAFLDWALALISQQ
UniProt Q99805: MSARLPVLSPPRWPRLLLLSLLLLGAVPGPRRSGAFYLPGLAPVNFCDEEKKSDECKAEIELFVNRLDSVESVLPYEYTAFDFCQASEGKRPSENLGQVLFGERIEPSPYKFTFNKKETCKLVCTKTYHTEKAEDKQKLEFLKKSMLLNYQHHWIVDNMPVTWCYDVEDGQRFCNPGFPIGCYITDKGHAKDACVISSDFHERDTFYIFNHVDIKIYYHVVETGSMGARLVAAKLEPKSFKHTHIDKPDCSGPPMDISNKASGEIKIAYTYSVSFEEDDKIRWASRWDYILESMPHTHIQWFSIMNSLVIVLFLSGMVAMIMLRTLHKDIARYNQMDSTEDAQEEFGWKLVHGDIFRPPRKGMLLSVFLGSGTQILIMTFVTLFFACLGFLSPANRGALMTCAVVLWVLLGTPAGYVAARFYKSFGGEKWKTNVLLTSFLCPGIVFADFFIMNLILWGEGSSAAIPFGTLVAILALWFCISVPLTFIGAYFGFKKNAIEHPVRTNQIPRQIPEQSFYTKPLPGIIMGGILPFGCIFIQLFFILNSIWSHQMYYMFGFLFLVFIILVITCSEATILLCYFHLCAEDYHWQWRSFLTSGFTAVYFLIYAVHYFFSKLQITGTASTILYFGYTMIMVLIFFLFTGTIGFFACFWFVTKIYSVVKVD

[2] = compound: CC1=C(C=C(C=C1)NC(=O)C2=CC(=CC=C2)N(C)C)NC(=O)C3=CC=C(C=C3)O
Outline: as §1

[3] = compound: CC1=CC=C(C=C1)SC2=C3C=C(SC3=CN=C2)C(=O)N
Outline: as §1

[4] = compound: CC1=NC(=CC=C1)C2=C(N=C(N2)C(C)(C)C)C3=CC4=NC=CN=C4C=C3
Outline: as §1

[5] = compound: CCCCN(Cc1ccc(C(=O)NO)cc1)C(=O)Nc1ccccc1 [Nexturastat A]
Outline: as §1

[6] = compound: CCCS(=O)(=O)Nc1ccc(F)c(C(=O)c2c[nH]c3ncc(-c4ccc(Cl)cc4)cc23)c1F [vemurafenib]
Outline: as §1

[7] = compound: CCCS(=O)(=O)Nc1ccc(F)c(C(=O)c2c[nH]c3ncc(Cl)cc23)c1F
Outline: as §1

[8] = compound: CCCc1cc(C)[nH]c(=O)c1CNC(=O)c1cc(-c2ccnc(N3CCN(C)CC3)c2)cc2c1cnn2C(C)C
Outline: as §1

[9] = compound: CCN(CC)Cc1ccc2cc(COC(=O)Nc3ccc(C(=O)NO)cc3)ccc2c1 [givinostat]
Outline: as §1

[10] = compound: CCN(CCCOc1ccc2c(Nc3cc(CC(=O)Nc4cccc(F)c4)[nH]n3)ncnc2c1)CCOP(=O)(O)O [barasertib]
Outline: as §1

[11] = compound: CC[C@@H]1C(=O)N(C)c2cnc(Nc3ccc(C(=O)NC4CCN(C)CC4)cc3OC)nc2N1C1CCCC1
Outline: as §1

[12] = compound: CC[C@@H]1C(=O)N(C)c2cnc(Nc3ccc(C(=O)N[C@H]4CC[C@H](N5CCN(CC6CC6)CC5)CC4)cc3OC)nc2N1C(C)C [volasertib]
Outline: as §1

[13] = compound: CC[C@H](C)N1C=C(C2=C(C=C(C=C21)C3=CN=C(C=C3)N4CCNCC4)C(=O)NCC5=C(C=C(NC5=O)C)C)C
Outline: as §1

[14] = compound: CC[C@H](C)[C@@H](C(=O)N[C@@H]([C@@H](C)O)C(=O)N[C@@H](CC(C)C)C(=O)[C@]1(CO1)C)NC(=O)[C@H]([C@@H](C)CC)N(C)C(=O)C [epoxomicin]
Outline: as §1

[15] = compound: CCn1c(C(=O)N(C2CC2)C2CC2)cc2c3c(ncn3C)c(Nc3cc(C)n(C)n3)nc21
Outline: as §1

[16] = compound: CCn1cc(-c2ccnc3[nH]c(-c4cccc(CN(C)C)c4)cc23)c(-c2ccc(NC(=O)N(C)C)cc2)n1
Outline: as §1

[17] = compound: CN(C)CC(=O)Nc1ccc2[nH]c(=O)c3ccccc3c2c1
Outline: as §1

[18] = compound: CN(CCOC1=CC=C(C=C1)C[C@H]2C(=O)NC(=O)S2)C3=CC=CC=N3 (racemic) [rosiglitazone]
Outline: as §1

[19] = compound: CN1C2=C(C3=C1C(=O)N(N=C3)CC4=CC(=CC=C4)N)SC(=C2)S(=O)C
Outline: as §1

[20] = compound: CN1CCC(CNc2ccc3ncc(-c4cccc(OC(F)(F)F)c4)n3n2)CC1
Outline: as §1

Measured: log2 fold change

TMEM245 (UniProt Q9H330)
inactive: [1] -0.03 | [2] 0.035 | [3] -0.007 | [4] 0.017 | [5] -0.089 | [6] 0.01 | [7] -0.007 | [8] -0.015 | [9] -0.017 | [10] -0.003 | [11] 0.065 | [12] -0.045 | [13] -0.062 | [14] -0.052 | [15] -0.004 | [16] 0.015 | [17] 0.031 | [18] 0 | [19] -0.057 | [20] 0.027

TMEM30A (UniProt Q9NV96)
inactive: [1] -0.013 | [2] 0.012 | [3] -0.012 | [4] -0.012 | [5] -0.018 | [6] 0 | [7] 0 | [8] 0.068 | [9] 0 | [10] -0.008 | [11] 0.04 | [12] 0.039 | [13] -0.035 | [14] -0.009 | [15] 0.007 | [16] -0.015 | [17] -0.063 | [18] 0.015 | [19] -0.018 | [20] 0.012

TMEM38B (UniProt Q9NVV0)
inactive: [1] -0.034 | [2] -0.01 | [3] 0.01 | [4] 0.016 | [5] -0.038 | [6] -0.029 | [7] 0.001 | [8] -0.229 | [9] 0 | [10] -0.047 | [11] 0.025 | [12] 0.07 | [13] -0.092 | [14] 0 | [15] 0 | [16] -0.024 | [17] -0.003 | [18] 0.024 | [19] -0.002 | [20] 0.041

Reprinted at random: two entries already listed, in no set order.
TMEM30A (UniProt Q9NV96)
inactive: [1] -0.013 | [2] 0.012 | [3] -0.012 | [4] -0.012 | [5] -0.018 | [6] 0 | [7] 0 | [8] 0.068 | [9] 0 | [10] -0.008 | [11] 0.04 | [12] 0.039 | [13] -0.035 | [14] -0.009 | [15] 0.007 | [16] -0.015 | [17] -0.063 | [18] 0.015 | [19] -0.018 | [20] 0.012

TMEM38B (UniProt Q9NVV0)
inactive: [1] -0.034 | [2] -0.01 | [3] 0.01 | [4] 0.016 | [5] -0.038 | [6] -0.029 | [7] 0.001 | [8] -0.229 | [9] 0 | [10] -0.047 | [11] 0.025 | [12] 0.07 | [13] -0.092 | [14] 0 | [15] 0 | [16] -0.024 | [17] -0.003 | [18] 0.024 | [19] -0.002 | [20] 0.041

Next part

TMEM68 (UniProt Q96MH6)
inactive: [1] -0.045 | [2] -0.002 | [3] -0.027 | [4] -0.001 | [5] 0.015 | [6] 0.013 | [7] 0.038 | [8] 0.012 | [9] 0.014 | [10] -0.041 | [11] -0.005 | [12] -0.09 | [13] 0.012 | [14] -0.063 | [15] 0.017 | [16] -0.079 | [17] 0.058 | [18] 0.021 | [19] -0.012 | [20] -0.02

TMLHE isoform 8 (UniProt Q9NVH6)
inactive: [1] -0.079 | [2] 0.059 | [3] 0 | [4] -0.01 | [5] 0.058 | [6] -0.014 | [7] -0.114 | [8] -0.029 | [9] -0.061 | [10] 0.042 | [11] -0.036 | [12] 0.133 | [13] 0.062 | [14] -0.016 | [15] 0.058 | [16] 0.001 | [17] -0.017 | [18] 0.027 | [19] -0.034 | [20] -0.082

TM2D3 (UniProt Q9BRN9)
inactive: [1] -0.04 | [2] -0.121 | [3] 0.035 | [4] -0.081 | [5] 0.058 | [6] 0.096 | [7] 0.006 | [8] -0.353 | [9] 0.006 | [10] -0.033 | [11] -0.012 | [12] 0 | [13] -0.141 | [14] -0.1 | [15] 0.013 | [16] -0.018 | [17] -0.048 | [18] 0.009 | [19] 0.026 | [20] 0.087

TMX3 (UniProt Q96JJ7)
inactive: [1] 0.074 | [2] -0.006 | [3] -0.008 | [4] -0.027 | [5] -0.056 | [6] 0.007 | [7] -0.017 | [8] 0.005 | [9] -0.026 | [10] 0.019 | [11] 0.031 | [12] -0.025 | [13] 0.013 | [14] 0.014 | [15] 0.01 | [16] 0.004 | [17] -0.011 | [18] -0.003 | [19] 0.017 | [20] 0.048

TMEM9 (UniProt Q9P0T7)
active: [14] 0.296
inactive: [1] -0.024 | [2] -0.041 | [3] 0.057 | [4] -0.008 | [5] 0 | [6] 0.028 | [7] 0.091 | [8] -0.062 | [9] 0.039 | [10] 0.019 | [11] -0.112 | [12] -0.07 | [13] -0.05 | [16] 0.015 | [17] 0.004 | [19] -0.015 | [20] -0.007

TMEM126A (UniProt Q9H061)
inactive: [1] -0.009 | [2] -0.013 | [3] -0.003 | [4] -0.002 | [5] -0.035 | [6] 0.001 | [7] -0.036 | [8] -0.025 | [9] 0.006 | [10] -0.016 | [11] -0.003 | [12] 0.023 | [13] 0.007 | [14] -0.026 | [15] 0.02 | [16] -0.095 | [17] 0.02 | [18] 0.005 | [19] -0.013 | [20] -0.02

TMEM161A (UniProt Q9NX61)
inactive: [1] -0.045 | [2] 0.12 | [3] 0.014 | [4] -0.012 | [5] -0.059 | [6] 0.045 | [7] 0.225 | [8] -0.048 | [9] 0.024 | [10] -0.017 | [11] 0.033 | [13] -0.08 | [14] 0.049 | [16] 0.014 | [17] -0.009 | [19] -0.026 | [20] -0.265
active: [12] -0.477

TMEM205 (UniProt Q6UW68)
inactive: [1] -0.18 | [2] 0.023 | [3] -0.105 | [4] -0.119 | [5] -0.146 | [6] 0 | [7] -0.147 | [8] -0.043 | [9] -0.006 | [10] 0.056 | [11] 0.033 | [12] 0.075 | [13] 0.038 | [14] 0.035 | [15] 0.07 | [16] 0.051 | [17] 0.068 | [18] 0.003 | [19] 0.018 | [20] 0.278

TMED9 (UniProt Q9BVK6)
inactive: [1] -0.022 | [2] 0.004 | [3] 0.007 | [4] -0.005 | [5] -0.084 | [6] -0.021 | [7] 0.04 | [8] 0.011 | [9] 0.01 | [10] 0.031 | [11] 0.066 | [12] 0.049 | [13] 0.009 | [14] 0.008 | [15] -0.023 | [16] 0.045 | [17] 0.005 | [18] -0.013 | [19] -0.069 | [20] -0.016

TMSB10 (UniProt P63313)
inactive: [1] 0.003 | [2] -0.034 | [3] 0.055 | [4] 0.079 | [5] -0.041 | [6] 0.14 | [7] -0.007 | [8] 0.008 | [9] -0.071 | [10] 0.055 | [11] -0.046 | [12] -0.017 | [13] -0.052 | [14] 0.297 | [15] 0.036 | [16] -0.022 | [17] 0.008 | [18] 0.019 | [19] -0.029 | [20] 0.089

TMUB2 (UniProt Q71RG4)
inactive: [1] 0.006 | [2] -0.01 | [3] -0.135 | [4] 0.009 | [5] 0.044 | [6] -0.073 | [7] -0.025 | [8] -0.036 | [9] 0.012 | [10] -0.019 | [11] 0.054 | [12] 0.127 | [13] 0.03 | [14] -0.029 | [15] 0.024 | [16] 0.102 | [17] 0.036 | [18] 0.055 | [19] -0.003 | [20] 0.07

TMEM214 (UniProt Q6NUQ4)
active: [12] -0.246
inactive: [1] -0.038 | [2] -0.054 | [3] 0.023 | [4] 0.007 | [5] 0.062 | [6] 0.046 | [7] 0.065 | [8] 0 | [9] 0.021 | [10] -0.03 | [11] -0.023 | [13] 0.075 | [14] 0.032 | [16] -0.023 | [17] 0.008 | [19] 0.004 | [20] 0.148

TM9SF2 (UniProt Q99805)
inactive: [1] 0.056 | [2] -0.009 | [3] -0.005 | [4] -0.001 | [5] -0.039 | [6] -0.03 | [7] 0.018 | [8] -0.004 | [9] -0.019 | [10] 0.035 | [13] -0.008 | [14] -0.034 | [16] -0.017 | [17] 0.018 | [19] -0.01 | [20] -0.182
active: [11] -0.57 | [12] -0.621
